According to the supplement of paper PMC10849652:
This is one part of the list.

Sequences of proteins named here, by UniProt entry; tags and fusion partners are left off. A change or cut given only in a name is not applied to a line headed by its entry.
UniProt P20618: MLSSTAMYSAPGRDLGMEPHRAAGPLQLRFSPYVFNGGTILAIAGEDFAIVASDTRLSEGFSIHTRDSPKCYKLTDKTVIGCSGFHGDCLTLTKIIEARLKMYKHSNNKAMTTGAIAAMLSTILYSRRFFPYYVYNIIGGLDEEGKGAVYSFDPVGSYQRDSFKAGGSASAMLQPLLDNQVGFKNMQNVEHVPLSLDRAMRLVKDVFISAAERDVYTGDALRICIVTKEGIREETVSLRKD
UniProt Q8TAA3: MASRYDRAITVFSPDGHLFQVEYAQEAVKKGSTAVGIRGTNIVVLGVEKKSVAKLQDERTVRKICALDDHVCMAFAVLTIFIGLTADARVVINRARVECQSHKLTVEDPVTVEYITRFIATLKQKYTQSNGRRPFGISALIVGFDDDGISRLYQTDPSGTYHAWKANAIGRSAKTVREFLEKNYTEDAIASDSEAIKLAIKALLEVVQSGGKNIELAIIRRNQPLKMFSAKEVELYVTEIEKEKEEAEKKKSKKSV
UniProt O75475: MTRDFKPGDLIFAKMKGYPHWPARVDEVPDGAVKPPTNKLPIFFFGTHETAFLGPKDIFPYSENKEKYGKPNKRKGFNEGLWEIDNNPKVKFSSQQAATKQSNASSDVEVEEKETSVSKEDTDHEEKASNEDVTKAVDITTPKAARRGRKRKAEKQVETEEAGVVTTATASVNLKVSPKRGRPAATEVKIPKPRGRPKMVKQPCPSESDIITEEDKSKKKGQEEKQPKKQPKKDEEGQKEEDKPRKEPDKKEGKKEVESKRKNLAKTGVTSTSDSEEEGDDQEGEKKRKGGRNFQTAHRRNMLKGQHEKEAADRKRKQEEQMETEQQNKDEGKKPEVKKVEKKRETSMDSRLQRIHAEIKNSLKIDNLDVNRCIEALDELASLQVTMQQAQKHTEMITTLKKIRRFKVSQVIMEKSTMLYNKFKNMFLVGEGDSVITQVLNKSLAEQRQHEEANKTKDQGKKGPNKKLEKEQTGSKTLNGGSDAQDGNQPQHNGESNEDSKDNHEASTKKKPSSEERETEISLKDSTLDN
UniProt P09417: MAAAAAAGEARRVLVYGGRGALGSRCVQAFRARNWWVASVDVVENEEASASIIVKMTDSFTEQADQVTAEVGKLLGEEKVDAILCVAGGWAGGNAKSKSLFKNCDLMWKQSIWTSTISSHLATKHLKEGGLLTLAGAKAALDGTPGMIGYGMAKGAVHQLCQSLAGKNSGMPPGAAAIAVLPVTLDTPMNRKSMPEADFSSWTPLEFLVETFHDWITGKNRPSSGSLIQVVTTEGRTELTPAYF
UniProt Q9Y617: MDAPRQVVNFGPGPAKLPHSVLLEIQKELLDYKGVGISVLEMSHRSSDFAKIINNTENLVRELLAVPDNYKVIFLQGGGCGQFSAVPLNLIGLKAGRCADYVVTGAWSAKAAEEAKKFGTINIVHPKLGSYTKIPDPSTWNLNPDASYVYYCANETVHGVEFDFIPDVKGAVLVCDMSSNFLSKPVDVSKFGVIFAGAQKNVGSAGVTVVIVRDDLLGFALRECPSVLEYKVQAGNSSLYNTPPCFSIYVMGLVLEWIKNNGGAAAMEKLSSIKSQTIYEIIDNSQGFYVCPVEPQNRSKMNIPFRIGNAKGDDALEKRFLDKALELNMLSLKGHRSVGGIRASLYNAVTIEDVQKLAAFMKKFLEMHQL
UniProt Q6ZRP7: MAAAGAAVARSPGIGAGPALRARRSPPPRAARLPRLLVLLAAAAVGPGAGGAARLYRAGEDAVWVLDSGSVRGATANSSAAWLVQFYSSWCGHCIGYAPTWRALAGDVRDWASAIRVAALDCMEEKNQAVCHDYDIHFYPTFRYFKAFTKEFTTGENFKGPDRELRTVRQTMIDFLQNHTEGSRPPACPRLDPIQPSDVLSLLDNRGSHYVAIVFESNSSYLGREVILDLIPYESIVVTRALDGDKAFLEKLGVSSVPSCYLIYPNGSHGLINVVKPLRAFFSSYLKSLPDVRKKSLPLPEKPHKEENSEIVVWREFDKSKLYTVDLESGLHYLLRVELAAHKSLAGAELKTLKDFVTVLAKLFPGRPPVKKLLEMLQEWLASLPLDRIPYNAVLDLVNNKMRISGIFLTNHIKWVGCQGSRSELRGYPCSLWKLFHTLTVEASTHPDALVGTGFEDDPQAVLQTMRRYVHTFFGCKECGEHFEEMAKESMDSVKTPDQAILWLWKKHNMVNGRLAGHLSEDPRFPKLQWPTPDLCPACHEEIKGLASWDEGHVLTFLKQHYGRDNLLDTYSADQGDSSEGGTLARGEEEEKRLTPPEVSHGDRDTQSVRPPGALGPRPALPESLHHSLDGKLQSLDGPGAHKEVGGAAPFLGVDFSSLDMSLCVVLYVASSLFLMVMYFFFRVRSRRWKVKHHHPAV
UniProt P25787: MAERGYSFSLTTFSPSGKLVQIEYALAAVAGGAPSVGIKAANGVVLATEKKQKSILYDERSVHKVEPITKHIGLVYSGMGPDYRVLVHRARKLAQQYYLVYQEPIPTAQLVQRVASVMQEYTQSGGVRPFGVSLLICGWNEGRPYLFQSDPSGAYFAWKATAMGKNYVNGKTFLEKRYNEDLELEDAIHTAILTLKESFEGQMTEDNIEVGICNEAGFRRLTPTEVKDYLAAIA
UniProt P08575: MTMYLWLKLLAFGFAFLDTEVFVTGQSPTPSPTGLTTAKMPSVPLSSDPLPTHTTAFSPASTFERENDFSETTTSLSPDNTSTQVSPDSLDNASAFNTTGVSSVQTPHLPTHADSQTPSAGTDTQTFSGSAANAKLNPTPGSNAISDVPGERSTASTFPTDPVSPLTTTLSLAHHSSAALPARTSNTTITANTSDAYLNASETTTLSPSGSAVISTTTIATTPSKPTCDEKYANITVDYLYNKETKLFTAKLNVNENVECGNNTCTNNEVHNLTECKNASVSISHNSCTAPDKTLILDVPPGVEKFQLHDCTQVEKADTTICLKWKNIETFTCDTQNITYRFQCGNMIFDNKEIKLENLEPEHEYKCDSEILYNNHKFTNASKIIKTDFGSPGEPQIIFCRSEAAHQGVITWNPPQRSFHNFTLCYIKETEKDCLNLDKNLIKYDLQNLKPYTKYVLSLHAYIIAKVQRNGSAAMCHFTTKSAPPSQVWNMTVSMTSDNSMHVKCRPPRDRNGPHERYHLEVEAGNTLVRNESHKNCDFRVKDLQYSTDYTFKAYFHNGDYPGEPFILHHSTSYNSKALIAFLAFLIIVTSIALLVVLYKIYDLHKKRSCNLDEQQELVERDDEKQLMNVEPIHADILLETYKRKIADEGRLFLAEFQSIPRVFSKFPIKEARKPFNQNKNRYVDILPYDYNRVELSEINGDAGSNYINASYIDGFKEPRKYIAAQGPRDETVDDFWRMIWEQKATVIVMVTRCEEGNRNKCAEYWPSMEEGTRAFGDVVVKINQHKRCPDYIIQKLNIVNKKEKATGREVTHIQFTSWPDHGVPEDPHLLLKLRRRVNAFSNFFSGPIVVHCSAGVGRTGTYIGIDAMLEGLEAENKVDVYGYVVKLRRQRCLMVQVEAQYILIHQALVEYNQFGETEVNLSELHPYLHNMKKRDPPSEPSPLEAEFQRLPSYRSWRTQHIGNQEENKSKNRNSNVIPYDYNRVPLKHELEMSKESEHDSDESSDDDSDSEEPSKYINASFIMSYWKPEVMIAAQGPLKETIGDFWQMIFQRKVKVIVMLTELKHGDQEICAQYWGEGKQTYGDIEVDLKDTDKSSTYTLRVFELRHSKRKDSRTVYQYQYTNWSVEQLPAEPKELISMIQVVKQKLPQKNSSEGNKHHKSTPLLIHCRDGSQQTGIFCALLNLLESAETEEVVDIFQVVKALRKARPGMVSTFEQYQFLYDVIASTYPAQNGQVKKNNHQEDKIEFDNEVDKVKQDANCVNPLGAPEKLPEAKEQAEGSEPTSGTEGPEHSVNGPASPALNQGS
UniProt Q9BZE2: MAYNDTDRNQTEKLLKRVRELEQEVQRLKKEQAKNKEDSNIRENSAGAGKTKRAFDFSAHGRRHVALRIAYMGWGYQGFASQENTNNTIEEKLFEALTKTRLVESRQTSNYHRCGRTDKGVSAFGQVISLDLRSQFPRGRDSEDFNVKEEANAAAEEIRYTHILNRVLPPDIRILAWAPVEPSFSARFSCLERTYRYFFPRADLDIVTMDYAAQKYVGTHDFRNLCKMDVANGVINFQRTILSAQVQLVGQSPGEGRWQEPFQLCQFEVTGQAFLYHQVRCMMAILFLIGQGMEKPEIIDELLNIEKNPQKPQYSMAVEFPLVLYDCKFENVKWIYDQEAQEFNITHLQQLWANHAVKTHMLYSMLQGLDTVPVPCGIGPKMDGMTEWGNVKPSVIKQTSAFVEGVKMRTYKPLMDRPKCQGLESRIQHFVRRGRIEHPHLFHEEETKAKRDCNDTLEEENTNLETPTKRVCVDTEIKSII
UniProt Q7Z6K3: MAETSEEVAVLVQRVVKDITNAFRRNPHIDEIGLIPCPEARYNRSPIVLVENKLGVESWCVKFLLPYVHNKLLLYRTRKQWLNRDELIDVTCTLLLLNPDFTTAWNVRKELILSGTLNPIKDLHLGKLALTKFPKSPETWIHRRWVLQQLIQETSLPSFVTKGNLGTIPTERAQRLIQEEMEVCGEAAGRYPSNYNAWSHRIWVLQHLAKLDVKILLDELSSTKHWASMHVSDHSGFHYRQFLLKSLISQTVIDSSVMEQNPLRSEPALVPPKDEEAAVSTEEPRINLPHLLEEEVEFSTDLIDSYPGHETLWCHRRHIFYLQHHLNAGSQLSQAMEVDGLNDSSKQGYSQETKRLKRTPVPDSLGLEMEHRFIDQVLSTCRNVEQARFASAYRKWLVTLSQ
UniProt Q9BVG9: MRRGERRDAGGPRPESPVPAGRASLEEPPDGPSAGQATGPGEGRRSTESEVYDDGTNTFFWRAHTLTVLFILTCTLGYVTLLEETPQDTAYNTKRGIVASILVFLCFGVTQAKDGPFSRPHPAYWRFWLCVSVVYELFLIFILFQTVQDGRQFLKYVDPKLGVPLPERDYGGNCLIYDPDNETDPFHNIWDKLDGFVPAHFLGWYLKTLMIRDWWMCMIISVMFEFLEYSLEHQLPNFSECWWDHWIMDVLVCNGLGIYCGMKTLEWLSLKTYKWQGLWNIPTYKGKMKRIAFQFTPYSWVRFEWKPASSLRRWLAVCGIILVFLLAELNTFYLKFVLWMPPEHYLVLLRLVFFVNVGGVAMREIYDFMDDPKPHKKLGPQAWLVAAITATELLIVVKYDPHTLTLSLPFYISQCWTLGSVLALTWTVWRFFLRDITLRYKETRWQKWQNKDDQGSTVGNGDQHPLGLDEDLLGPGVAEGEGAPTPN
UniProt Q13308: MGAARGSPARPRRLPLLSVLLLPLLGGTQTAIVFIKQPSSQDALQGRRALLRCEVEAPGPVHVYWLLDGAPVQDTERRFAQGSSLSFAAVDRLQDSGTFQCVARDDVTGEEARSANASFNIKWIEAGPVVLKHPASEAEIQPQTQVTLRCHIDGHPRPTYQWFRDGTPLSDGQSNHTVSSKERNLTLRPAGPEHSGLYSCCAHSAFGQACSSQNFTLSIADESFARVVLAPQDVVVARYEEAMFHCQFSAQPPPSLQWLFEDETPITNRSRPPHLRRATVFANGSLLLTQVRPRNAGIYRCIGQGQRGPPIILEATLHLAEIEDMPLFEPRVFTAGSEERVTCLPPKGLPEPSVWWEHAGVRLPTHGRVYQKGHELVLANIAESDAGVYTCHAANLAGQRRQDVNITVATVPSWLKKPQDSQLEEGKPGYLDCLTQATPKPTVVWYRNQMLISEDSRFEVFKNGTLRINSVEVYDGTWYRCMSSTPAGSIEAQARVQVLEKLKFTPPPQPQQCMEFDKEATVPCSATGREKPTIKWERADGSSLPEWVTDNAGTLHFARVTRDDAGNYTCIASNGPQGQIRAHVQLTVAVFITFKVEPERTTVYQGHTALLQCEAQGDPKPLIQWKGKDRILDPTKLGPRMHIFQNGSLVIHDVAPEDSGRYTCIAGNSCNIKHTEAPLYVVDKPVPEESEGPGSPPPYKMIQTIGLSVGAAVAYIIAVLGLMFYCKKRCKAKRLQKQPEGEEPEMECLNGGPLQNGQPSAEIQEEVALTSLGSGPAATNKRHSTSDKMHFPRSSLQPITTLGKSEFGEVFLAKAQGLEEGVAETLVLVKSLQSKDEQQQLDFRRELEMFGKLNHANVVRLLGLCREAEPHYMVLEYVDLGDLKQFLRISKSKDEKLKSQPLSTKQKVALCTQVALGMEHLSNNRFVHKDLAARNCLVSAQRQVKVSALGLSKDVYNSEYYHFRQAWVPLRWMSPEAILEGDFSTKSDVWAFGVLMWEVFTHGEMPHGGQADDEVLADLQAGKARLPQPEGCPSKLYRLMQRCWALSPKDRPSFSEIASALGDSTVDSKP

Tests used:
Test in all cases: log2 fold change, soluble protein after heating vs DMSO (PISA); higher = thermal stabilisation; K562 cells, 10 uM, 30 min; active = over 0.2 and 3.5 SD of the protein, either way, in both replicates (recomputed)
[1] = compound: CC1=C(C=C(C=C1)NC(=O)C2=CC(=CC=C2)C(C)(C)C#N)NC3=CC4=C(C=C3)N=CN(C4=O)C
Outline: (§1)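 K562 cells at 2×10^6 cells/mL were treated with 10 μM compound for 30 min. Aliquots were heated for 3 min across 48°C-58°C, pooled, and extracted in PBS with 0.5% NP-40 at 4°C; soluble protein was the supernatant after 21,000xg for 90 min. Soluble protein was quantified by TMTpro 16plex LC-MS/MS with channel sums equalised, and reported as log2 fold change in thermal stability against DMSO controls, with values from duplicates.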

[2] = compound: CC1=C(C=C(C=C1)NC(=O)C2=CC(=CC=C2)N(C)C)NC(=O)C3=CC=C(C=C3)O
Outline: as §1

[3] = compound: CC1=CC=C(C=C1)SC2=C3C=C(SC3=CN=C2)C(=O)N
Outline: as §1

[4] = compound: CC1=NC(=CC=C1)C2=C(N=C(N2)C(C)(C)C)C3=CC4=NC=CN=C4C=C3
Outline: as §1

[5] = compound: CCCCN(Cc1ccc(C(=O)NO)cc1)C(=O)Nc1ccccc1 [Nexturastat A]
Outline: as §1

[6] = compound: CCCS(=O)(=O)Nc1ccc(F)c(C(=O)c2c[nH]c3ncc(-c4ccc(Cl)cc4)cc23)c1F [vemurafenib]
Outline: as §1

[7] = compound: CCCS(=O)(=O)Nc1ccc(F)c(C(=O)c2c[nH]c3ncc(Cl)cc23)c1F
Outline: as §1

[8] = compound: CCCc1cc(C)[nH]c(=O)c1CNC(=O)c1cc(-c2ccnc(N3CCN(C)CC3)c2)cc2c1cnn2C(C)C
Outline: as §1

[9] = compound: CCN(CC)Cc1ccc2cc(COC(=O)Nc3ccc(C(=O)NO)cc3)ccc2c1 [givinostat]
Outline: as §1

[10] = compound: CCN(CCCOc1ccc2c(Nc3cc(CC(=O)Nc4cccc(F)c4)[nH]n3)ncnc2c1)CCOP(=O)(O)O [barasertib]
Outline: as §1

[11] = compound: CC[C@@H]1C(=O)N(C)c2cnc(Nc3ccc(C(=O)NC4CCN(C)CC4)cc3OC)nc2N1C1CCCC1
Outline: as §1

[12] = compound: CC[C@@H]1C(=O)N(C)c2cnc(Nc3ccc(C(=O)N[C@H]4CC[C@H](N5CCN(CC6CC6)CC5)CC4)cc3OC)nc2N1C(C)C [volasertib]
Outline: as §1

[13] = compound: CC[C@H](C)N1C=C(C2=C(C=C(C=C21)C3=CN=C(C=C3)N4CCNCC4)C(=O)NCC5=C(C=C(NC5=O)C)C)C
Outline: as §1

[14] = compound: CC[C@H](C)[C@@H](C(=O)N[C@@H]([C@@H](C)O)C(=O)N[C@@H](CC(C)C)C(=O)[C@]1(CO1)C)NC(=O)[C@H]([C@@H](C)CC)N(C)C(=O)C [epoxomicin]
Outline: as §1

[15] = compound: CCn1c(C(=O)N(C2CC2)C2CC2)cc2c3c(ncn3C)c(Nc3cc(C)n(C)n3)nc21
Outline: as §1

[16] = compound: CCn1cc(-c2ccnc3[nH]c(-c4cccc(CN(C)C)c4)cc23)c(-c2ccc(NC(=O)N(C)C)cc2)n1
Outline: as §1

[17] = compound: CN(C)CC(=O)Nc1ccc2[nH]c(=O)c3ccccc3c2c1
Outline: as §1

[18] = compound: CN(CCOC1=CC=C(C=C1)C[C@H]2C(=O)NC(=O)S2)C3=CC=CC=N3 (racemic) [rosiglitazone]
Outline: as §1

[19] = compound: CN1C2=C(C3=C1C(=O)N(N=C3)CC4=CC(=CC=C4)N)SC(=C2)S(=O)C
Outline: as §1

[20] = compound: CN1CCC(CNc2ccc3ncc(-c4cccc(OC(F)(F)F)c4)n3n2)CC1
Outline: as §1

Measured: log2 fold change

PSMB1 (UniProt P20618)
inactive: [1] -0.04 | [2] 0.005 | [3] -0.007 | [4] -0.014 | [5] 0.011 | [6] -0.005 | [7] -0.031 | [8] 0.008 | [9] -0.041 | [10] -0.046 | [11] 0.037 | [12] 0.112 | [13] -0.024 | [14] -0.178 | [15] 0.05 | [16] -0.075 | [17] 0.001 | [18] -0.052 | [19] -0.016 | [20] 0.153

PSMA8 (UniProt Q8TAA3)
inactive: [1] -0.019 | [2] 0.021 | [3] 0.012 | [4] -0.026 | [5] 0.009 | [6] -0.064 | [7] 0.002 | [8] 0.008 | [9] -0.02 | [10] -0.068 | [11] 0.074 | [12] 0.089 | [13] 0 | [14] -0.187 | [15] 0.034 | [16] 0.038 | [17] 0.022 | [18] -0.013 | [19] 0.001 | [20] 0.024

PTBP3 isoform 4 (UniProt O95758)
inactive: [1] 0.111 | [2] -0.028 | [3] 0.057 | [4] 0.068 | [5] 0.004 | [6] 0.074 | [7] 0.144 | [8] 0.048 | [9] 0.083 | [10] -0.012 | [11] -0.041 | [12] -0.234 | [13] 0.086 | [14] 0.027 | [15] 0.018 | [16] -0.016 | [17] 0.034 | [18] 0.014 | [19] -0.023 | [20] -0.082

PSIP1 (UniProt O75475)
inactive: [1] 0.053 | [2] -0.019 | [3] -0.012 | [4] -0.056 | [5] 0.069 | [6] -0.024 | [7] -0.009 | [8] 0.048 | [9] -0.03 | [10] -0.04 | [11] 0.095 | [12] 0.096 | [13] 0 | [14] -0.054 | [15] 0.029 | [16] 0.014 | [17] -0.041 | [18] -0.028 | [19] 0.121 | [20] -0.019

QDPR (UniProt P09417)
inactive: [1] -0.007 | [2] 0.006 | [3] 0.045 | [4] -0.001 | [5] -0.008 | [6] -0.036 | [7] -0.018 | [8] -0.029 | [9] -0.013 | [10] 0.018 | [11] 0.019 | [12] 0.055 | [13] -0.031 | [14] 0.012 | [15] 0.041 | [16] 0.004 | [17] -0.04 | [18] -0.03 | [19] -0.004 | [20] -0.007

Copied from the listing (2 entries):
PSIP1 (UniProt O75475)
inactive: [1] 0.053 | [2] -0.019 | [3] -0.012 | [4] -0.056 | [5] 0.069 | [6] -0.024 | [7] -0.009 | [8] 0.048 | [9] -0.03 | [10] -0.04 | [11] 0.095 | [12] 0.096 | [13] 0 | [14] -0.054 | [15] 0.029 | [16] 0.014 | [17] -0.041 | [18] -0.028 | [19] 0.121 | [20] -0.019

QDPR (UniProt P09417)
inactive: [1] -0.007 | [2] 0.006 | [3] 0.045 | [4] -0.001 | [5] -0.008 | [6] -0.036 | [7] -0.018 | [8] -0.029 | [9] -0.013 | [10] 0.018 | [11] 0.019 | [12] 0.055 | [13] -0.031 | [14] 0.012 | [15] 0.041 | [16] 0.004 | [17] -0.04 | [18] -0.03 | [19] -0.004 | [20] -0.007

Continuation.

PSAT1 (UniProt Q9Y617)
inactive: [1] 0.023 | [2] -0.001 | [3] 0.002 | [4] 0.033 | [5] -0.074 | [6] 0.022 | [7] 0.026 | [8] -0.004 | [9] -0.065 | [10] 0.007 | [11] -0.016 | [12] 0.057 | [13] -0.017 | [14] 0.017 | [15] 0 | [16] 0 | [17] -0.016 | [18] -0.029 | [19] -0.05 | [20] 0.006

PURB (UniProt Q96QR8)
inactive: [1] -0.088 | [2] 0.023 | [3] -0.156 | [4] -0.105 | [5] 0.113 | [6] -0.121 | [7] -0.062 | [8] 0.055 | [9] -0.046 | [10] -0.176 | [11] 0.28 | [12] 0.373 | [13] -0.05 | [14] -0.303 | [15] 0.023 | [16] 0.231 | [17] -0.049 | [18] -0.089 | [19] 0.335 | [20] 0.297

PTK2 (UniProt Q05397)
inactive: [1] -0.005 | [2] 0.004 | [3] -0.004 | [4] 0.006 | [5] -0.013 | [6] -0.02 | [7] 0.005 | [8] -0.027 | [9] 0.14 | [10] -0.006 | [11] 0.1 | [12] 0.082 | [13] 0.001 | [14] -0.018 | [15] -0.019 | [16] -0.046 | [17] 0.001 | [18] 0.028 | [19] -0.032 | [20] -0.01

QSOX2 (UniProt Q6ZRP7)
inactive: [1] 0.011 | [2] -0.008 | [3] 0.016 | [4] -0.022 | [5] -0.063 | [6] 0.01 | [7] -0.005 | [8] -0.084 | [9] -0.015 | [10] -0.025 | [11] -0.13 | [12] -0.085 | [13] -0.034 | [14] -0.097 | [15] 0.043 | [16] 0.006 | [17] 0.02 | [18] 0.006 | [19] -0.05 | [20] 0.033

PSMA2 (UniProt P25787)
inactive: [1] 0.004 | [2] 0.013 | [3] -0.004 | [4] 0 | [5] 0.01 | [6] -0.026 | [7] -0.029 | [8] 0.017 | [9] -0.009 | [10] -0.042 | [11] 0.028 | [12] 0.117 | [13] -0.029 | [14] -0.146 | [15] 0 | [16] 0.06 | [17] -0.004 | [18] -0.04 | [19] 0.018 | [20] -0.01

PTPRC (UniProt P08575)
inactive: [1] 0.008 | [2] -0.004 | [3] 0.034 | [4] 0 | [5] -0.072 | [6] -0.006 | [7] -0.015 | [8] -0.01 | [9] -0.027 | [10] 0.018 | [11] 0.082 | [12] 0.023 | [13] 0 | [14] 0.036 | [15] -0.011 | [16] -0.017 | [17] -0.019 | [18] -0.001 | [19] -0.014 | [20] 0.178

PUS3 (UniProt Q9BZE2)
inactive: [1] 0.053 | [2] 0.03 | [3] 0.032 | [4] -0.018 | [5] -0.114 | [6] 0.015 | [7] 0.085 | [8] -0.028 | [9] -0.015 | [10] 0.033 | [11] -0.054 | [12] -0.142 | [13] 0.02 | [14] 0 | [15] 0.03 | [16] 0.074 | [17] -0.013 | [18] 0.049 | [19] -0.038 | [20] -0.045

PTAR1 (UniProt Q7Z6K3)
inactive: [1] -0.035 | [2] -0.031 | [3] -0.019 | [4] -0.026 | [5] -0.034 | [6] 0.016 | [7] 0.005 | [8] 0.02 | [9] -0.071 | [10] 0.021 | [11] 0.07 | [12] 0.022 | [13] 0.039 | [14] -0.005 | [15] -0.043 | [16] -0.05 | [17] 0.047 | [18] -0.043 | [19] -0.082 | [20] -0.011

QARS (UniProt P47897)
inactive: [1] 0.08 | [2] 0.084 | [3] -0.002 | [4] -0.106 | [5] 0.525 | [6] -0.085 | [7] 0.029 | [8] 0.248 | [9] 0.18 | [10] 0.041 | [11] 0.164 | [12] 0.042 | [13] 0.07 | [14] -0.277 | [15] -0.034 | [16] 0.177 | [17] -0.088 | [18] -0.011 | [19] 0.384 | [20] 0.075

PTDSS2 (UniProt Q9BVG9)
inactive: [1] -0.015 | [2] -0.02 | [3] 0.031 | [4] 0.047 | [5] -0.1 | [6] -0.012 | [7] -0.003 | [8] 0.007 | [9] 0.059 | [10] 0.038 | [11] -0.072 | [12] -0.137 | [13] -0.03 | [14] -0.146 | [15] -0.002 | [16] -0.011 | [17] 0.007 | [18] 0.022 | [19] -0.075 | [20] -0.059

PTK7 isoform 6 (UniProt Q13308)
inactive: [1] -0.086 | [2] -0.081 | [3] -0.064 | [4] -0.058 | [5] -0.046 | [6] 0.059 | [7] -0.091 | [8] -0.01 | [9] 0.048 | [10] -0.002 | [11] -0.014 | [12] 0.022 | [13] 0.022 | [14] -0.159 | [15] -0.016 | [16] 0.099 | [17] -0.038 | [18] 0.075 | [19] 0.071 | [20] 0.047
